Source: patent US4711952A, “Serum thymic factor peptide analogs and process for the preparation thereof” (SPOFA, spojene podniky pro zdravotnickouvyrobu, priority 1984, dated 1987)
At least one peptide structure holds a part that was inferred or is arguable (an end, a ring closure or a residue). Non-standard residues stand in square brackets, D forms with d. Residues, ends and D or L forms follow the SMILES beside them. No end group written: not given here. pGlu = O=C1CC[C@@H](C(=O)O)N1

System: Flymphocytes
Test: Recovery assay of Flymphocytes (in vitro)
Type: cell-based
Conditions: positive for immunostimulation and negative for immunosuppression
Excerpt: As is evident from the general formula I in comparison with the above structure of the natural substance, the compounds of the present invention, besides optional shortening at the N-terminus, comprise a C-terminal augmentation predominantly by an additional amino-acid residue or residues bearing an amide moiety.

Compound | Recovery Assay of Flymbocytes differential count
C[C@H](NC(=O)[C@@H]1CCC(=O)N1)C(=O)N[C@@H](CCCCN)C(=O)N[C@@H](CO)C(=O)N[C@@H](CCC(N)=O)C(=O)NCC(=O)NCC(=O)N[C@@H](CO)C(=O)N[C@@H](CC(N)=O)C(=O)O [p-Glu--D-Gln--E, pGlu-Ala-Lys-Ser-Gln-Gly2 -Ser-Asn, reference compound] ([pGlu]AKSQGGSN-OH) | 9.20%
AKSQGGSN [D-Gln--E, reference compound] | 3.18%
